Test results published in patent US20210170002A1, “SLC45A2 PEPTIDES FOR IMMUNOTHERAPY” (Board of Regents, The University of Texas System, priority 2015, published 2021).

Key:
[1] = system: melanoma cell lines; experiment: Mass spectrometric detection of HLA class I bound peptides in melanoma cell lines and tumor specimens; parameters: species or system human; settings: HLA-A,B,C immunoprecipitation, acid elution, MS/MS
Description: (§1) Tumor-associated peptides were directly eluted from HLA class I molecules isolated from fresh tumor tissue specimens or tumor cell lines. Tumor specimens (˜250 mg) were sliced into small pieces and digested in an enzymatic cocktail buffer in serum-free RPMI1640 medium until complete digestion, then washed and tumor cells lysed and supernatant collected. After measuring the protein concentration, tumor cell lysates were incubated with W6/32 antibody (specific for HLA-A, -B, and -C) then purified using resin beads. HLA class I-bound peptides were eluted and the presence of HLA was confirmed by Western Blot analysis. Positive elute fractions were analyzed by mass spectrometry, as described below.
(§2) For discovery phase tandem mass spectrometry (MS/MS), eluted MHC class I-bound peptides were injected onto a high-sensitivity HPLC system (Dionex 3000 RSLC), separated by reversed-phase chromatography in 0.1% formic acid water-acetonitrile on 1.8 micron C18 (Agilent Technologies) and analyzed on an Orbitrap Elite mass spectrometer (Thermo Scientific) using data-dependent acquisition. The Mascot algorithm searched acquired MS/MS spectra against the SwissProt complete human protein database using 10 ppm parent mass tolerance, 0.8 d fragment ion tolerance, Met oxidation, no enzyme selectivity. Search results were cross-referenced with the appropriate MHC-binding specificities using NetMHC 3.4 [101].
(§3) Several MDACC patient-derived melanoma cell lines and fresh melanoma tumor specimens were analyzed for surface HLA class I bound peptides using immunoprecipitation of HLA-A,B,C, acid elution, and tandem mass spectrometry (MS/MS). […] Additional evidence of these peptides being naturally processed and presented is shown in Table 5: Mel888 melanoma cells were transduced with lentiviral vectors to express either HLA-A*0201, A*2402, or A*0301. Immunopeptidome analysis was performed on parental and transduced Mel888 cells as described above. In this way, 5 of the 6 peptides identified in Table 4 were also detected in the transduced cells, but only if they expressed the appropriate HLA allele (Table 5 and FIG. 2). As shown, novel SLC45A2382-390 ([…]; SEQ ID NO:1) and SLC45A2393-402 ([…], SEQ ID NO:2) peptides were confirmed by elution from Mel888 transduced with HLA A*0201 or A*2402 using MS analysis.

[2] = system: HLA-transduced SLC45A2+ melanoma cell line Mel888; experiment: HLA immunoprecipitation and tandem mass spectrometry of parental and HLA-transduced Mel888 cells (natural processing and presentation); parameters: species or system human; settings: — = peptide not detected
Description: as §1, §2, §3

Sequence: ALIANPRRK [SLC45A2-derived peptide, position 129-137, A*0301]
- Number of melanomas in which peptide was detected [1]: 2
- Ion score of the detected peptide ([2]; Mel888 A*0301): 24

Sequence: RLLGTEFQV [SLC45A2-derived peptide, position 209-217, A*0201]
- Number of melanomas in which peptide was detected [1]: 8
- Ion score of the detected peptide ([2]; Mel888 A*0201): 27

Sequence: SGQAGRHIY [SLC45A2-derived peptide, position 5-13, A*3002]
- Number of melanomas in which peptide was detected [1]: 2

Sequence: SLYSYFQKV [HLA-A*0201 restricted SLC45A2-derived peptide, position 382-390]
- Number of melanomas in which peptide was detected [1]: 6
- Ion score of the detected peptide ([2]; Mel888 A*0201): 20

Sequence: SYIGLKGLYF [HLA-A*2402 restricted SLC45A2-derived peptide, position 393-402]
- Number of melanomas in which peptide was detected [1]: 3
- Ion score of the detected peptide ([2]; Mel888 A*0201): 23
- Ion score of the detected peptide ([2]; Mel888 A*0301): 31
- Ion score of the detected peptide ([2]; Mel888 A*1101): 34
- Ion score of the detected peptide ([2]; Mel888 A*2402): 61
- Ion score of the detected peptide ([2]; Mel888 PARENTAL): 34

Sequence: VWFLSPILGF [SLC45A2-derived peptide, position 73-82, A*2402]
- Number of melanomas in which peptide was detected [1]: 2
- Ion score of the detected peptide ([2]; Mel888 A*2402): 17
